PubChem BioAssay AID1224826 | NIAID – 2016

Purpose: 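Genes that change LPS-induced Tnf promoter activity in mouse macrophages when knocked down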 (primary screen)
Cells: RAW264.7 G9 macrophages from mouse bearing reporters for p65 (GFP) and the Tnf promoter (mCherry)
Knock-down reagent: siRNA pool against mouse genes, 100 nM
Time to read-out: 16 h of LPS stimulation, after 2 days of siRNA transfection
Treatment: bacterial lipopolysaccharide (Salmonella minnesota R595), 10 ng/ml
Measured: 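Nuclear mCherry signal of the Tnf promoter reporter measured by imaging after background removal, scaled to each plate median and turned into robust z-scores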
Direction: Tnf reporter robust z-score: higher = stronger Tnf promoter reporter signal after LPS; Tnf reporter intensity: higher = stronger Tnf promoter reporter signal
Call rule: 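a well counts as active at a score of -1.3 or below (Tlr4 knock-down control median) or above 3 (raised signal); controls and wells holding fewer than 50 cells are excluded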
Calls: active = Tnf reporter clearly lowered or raised; inactive = no clear change in Tnf reporter
In all, the deposit lists about 17,000 reagents; shown is an unselected part. Over the whole deposit, about 1,110 (6.6%) got an active call. 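Active means lowered or raised reporter signal; replicate intensities are raw and not normalised per plate.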 Reagents against one gene are numbered here. Further read-outs or replicates are left out here.

no.	target	reagent no.	Tnf reporter robust z-score	fewer than 50 cells in well	Tnf reporter intensity, replicate 1	activity call
1	Ubxn2a	1	1.14	enough cells in well	159	inactive
2	Or8b46	1	1.6	enough cells in well	202	inactive
3	Hnrnpul1	1	-0.52	enough cells in well	185	inactive
4	Neurl1b	1	-0.21	enough cells in well	125	inactive
5	Stx16	1	0.62	enough cells in well	217	inactive
6	Purg	1	-0.14	enough cells in well	133	inactive
7	Polr3h	1		fewer than 50 cells per well; well left out of calls	51.8	inactive
8	Rfx5	1	-0.65	enough cells in well	209	inactive
9	Fez1	1	-0.37	enough cells in well	211	inactive
10	Fga	1	-1.22	enough cells in well	138	inactive
11	Ccdc86	1	1.17	enough cells in well	238	inactive
12	Or6c5	1		fewer than 50 cells per well; well left out of calls	62.9	inactive
13	Vmn1r37	1	2.03	enough cells in well	167	inactive
14	Zfp740	1	0.37	enough cells in well	315	inactive
15	Mettl22	1	0.78	enough cells in well	252	inactive
16	Sh3bp1	1	-0.25	enough cells in well	82.6	inactive
17	Adam18	1		fewer than 50 cells per well; well left out of calls	67.9	inactive
18	Hey1	1	-1.35	enough cells in well	161	active
19	Slain2	1	-1.18	enough cells in well	109	inactive
20	Chrna5	1	-0.7	enough cells in well	167	inactive
21	Gimap1	1	1.68	enough cells in well	286	inactive
22	Cr1l	1	-0.06	enough cells in well	140	inactive
23	Nudcd3	1	1.22	enough cells in well	245	inactive
24	Or6z6	1	0.65	enough cells in well	200	inactive
25	Airn	1	0.4	enough cells in well	241	inactive
26	Sulf2	1	-0.49	enough cells in well	215	inactive
27	Cox11	1		fewer than 50 cells per well; well left out of calls	78.3	inactive
28	Zfp566	1	-0.82	enough cells in well	199	inactive
29	Gata2	1	0.35	enough cells in well	304	inactive
30	Fdxr	1	0.23	enough cells in well	250	inactive
31	Adam23	1	0.09	enough cells in well	188	inactive
32	Adam23	2	-0.42	enough cells in well	150	inactive
33	Xdh	1	-0.56	enough cells in well	145	inactive
34	Pate4	1		fewer than 50 cells per well; well left out of calls	98.9	inactive
35	Psmd4	1	3.69	enough cells in well	558	active
36	Lrp2bp	1		fewer than 50 cells per well; well left out of calls	166	inactive
37	Clasrp	1	0.14	enough cells in well	66.2	inactive
38	Jkamp	1	4.77	enough cells in well	338	active
39	Trim12c	1	-0.12	enough cells in well	137	inactive
40	C1ql1	1	0.58	enough cells in well	142	inactive
41	Anxa9	1		fewer than 50 cells per well; well left out of calls	75.1	inactive
42	Taar1	1	-0.24	enough cells in well	280	inactive
43	Rap1gds1	1	0.53	enough cells in well	362	inactive
44	Zbtb39	1	0.58	enough cells in well	231	inactive
45	C9	1	-0.19	enough cells in well	131	inactive
46	Nup42	1	-0.72	enough cells in well	148	inactive
47	Ahctf1	1	-0.43	enough cells in well	180	inactive
48	Or1ad1	1	1.36	enough cells in well	365	inactive
49	Rbks	1	-0.45	enough cells in well	164	inactive
50	Ush1c	1	-0.67	enough cells in well	163	inactive
51	Mrps12	1	0.61	enough cells in well	265	inactive
52	Tom1l2	1	0.23	enough cells in well	204	inactive
53	Vill	1	-1.43	enough cells in well	63.8	active
54	C1ql3	1		fewer than 50 cells per well; well left out of calls	86	inactive
55	Uaca	1	0.14	enough cells in well	124	inactive
56	Zfp324	1	-0.13	enough cells in well	204	inactive
57	Samd12	1	-1	enough cells in well	132	inactive
58	Sval1	1	0.74	enough cells in well	160	inactive
59	Lpar4	1	-0.04	enough cells in well	195	inactive
60	Serpina12	1	0.16	enough cells in well	97.2	inactive
61	Pfdn5	1	0.23	enough cells in well	248	inactive
62	Pfdn5	2	-0.55	enough cells in well	192	inactive
63	Chrm3	1	-0.1	enough cells in well	196	inactive
64	Or5t9	1	-0.12	enough cells in well	180	inactive
65	Ghr	1	0.02	enough cells in well	243	inactive
66	Or6c75	1		fewer than 50 cells per well; well left out of calls	28.3	inactive
67	Cul3	1	-0.89	enough cells in well	140	inactive
68	Ap3s2	1	-0.73	enough cells in well	156	inactive
69	Rasal2	1	-1.01	enough cells in well	103	inactive
70	Rasal2	2	-0.25	enough cells in well	134	inactive
71	Dipk1c	1	0.07	enough cells in well	168	inactive
72	Vipr2	1	0.92	enough cells in well	321	inactive
73	Cd302	1	-0.73	enough cells in well	119	inactive
74	Iqcf4	1	1.17	enough cells in well	295	inactive
75	Traf3	1	-0.31	enough cells in well	224	inactive

Just “fewer than 50 cells in well”, for 7 of the entries above:
Zfp740 = enough cells in well
Mettl22 = enough cells in well
Sh3bp1 = enough cells in well
Adam18 = fewer than 50 cells per well; well left out of calls
Hey1 = enough cells in well
Slain2 = enough cells in well
Chrna5 = enough cells in well
